Test results as given in US20260275280A1, “DIRECTED DIFFERENTIATION PROTOCOLS TO DERIVE BONE FIDE SPINAL SENSORY INTERNEURONS” (THE REGENTS OF THE UNIVERSITY OF CALIFORNIA, priority 2022, published 2026).
At least one compound was matched to its structure with a doubt left.

Tests used:
mESCs-derived NMPs = assay: 2D directed differentiation of NMPs with RA/BMP4, immunohistochemistry (pSmad1/5/8, Pax3, Pax6, Sox2, Tuj1, Pax2); assay type: cell-based, mouse
Procedure: The mouse ESC line, MM13, was routinely maintained in ES cell media (DMEM+20% FBS) with 100u/ml of mouse leukocyte inducing factor (LIF). […] To prepare cells for the differentiation, ESC colonies were dissociated with 0.25% trypsin and plated on gelatin coated plates at 1:10 dilution to reduce MEF transfer. Cells cultured on gelatin coated plates and allowed to proliferate for 1-2 days. To initiate differentiation, cells were plated on 0.1% gelatin coated 24-well CellBIND dishes (Corning) at 20,000 cells/ml density in 0.5 ml/well N2/B27 medium that contains 10 ng/ml basic fibroblast growth factor (bFGF). The N2/B27 medium contains 1:1 portions of Advanced Dulbecco's modified Eagle Media (DMEM) F12 (Hyclone) and Neurobasal media (Thermo Fisher Scientific) supplemented with 0.5×N2, 1×B27 supplement (with Vitamin A), 2 mM L-glutamine, 0.1 mM 2-mercaptoethanol (ME), and 1% BSA. On day 1, small colonies of cells can be observed attached to the bottom of the wells. On day 2, cells were supplemented with 10 ng/ml bFGF and 5 μM CHIR99021 for 24 hours to induce a neuromesodermal identity (Gouti et al., 2014). On day 3, media was changed as follows: for protocol 1, cells were exposed to 100 nM RA for 48 hrs. For protocol 2, 10 ng/ml human recombinant BMP4 (Thermo Fisher Scientific) was added concomitantly with 100 nM RA (RA+BMP4) for 48 hrs. For protocol 3, cells were exposed to 100 nM RA for 24 hrs, followed by a pulse of RA+BMP4 for another 24 hours. To induce terminal differentiation in all three conditions, the medium containing growth factors was replaced with basic N2/B27 medium at day 5, and cell allowed to differentiate to day 9. At the end of the differentiation, the cultures were fixed for immunohistochemical analysis or lysed to obtain RNA for RNA-Seq or quantitative reverse transcriptase PCR analysis.
Immunohistochemistry: For 2d differentiations, adherent cultures were first washed with 1×PBS and fixed with fresh cold 4% PFA for 10 minutes in the well. Following fixation, cultures were washed twice with 1×PBS to remove any remaining PFA. Cells were blocked with 1×PBS with 1% heat inactivated horse serum for 1 hour and primary antibodies are added in the blocking solution for an overnight incubation at 4C. Following washes, species appropriate secondary antibodies (Jackson Immuno Research Laboratories) were added in 1× PBT (PBS+0.1% […]) for 1 hr. The cultures were then washed with 1× PBT to remove traces of secondary antibodies and counterstained with DAPI to stain nuclei. Plates were then imaged on Zeiss LSM800 inverted confocal microscope at 10× magnification. […]

[1] = test system: mESCs-derived NMPs / NPCs; assay: Bulk RNA-Seq differential expression and qRT-PCR after RA or RA+BMP4 treatment; assay type: cell-based, mouse; settings: 24-hour pulse of RA; qRT-PCR and transcriptional profiling
Procedure: Bulk-RNA sequencing and data processing: Total cell lysate was obtained in buffer RLT (Qiagen) at different time points from three independent differentiations (biological replicates) conducted parallelly. RNA extraction was performed using RNeasy mini kit (Qiagen) and the quality was determined using Agilent Technologies 2100 Bioanalyzer and only samples with a RIN score >8.0 were sequenced. Stranded libraries were constructed using Universal plus mRNA sequencing kit (NuGEN) and sequenced onto 2 lanes of NovaseqS1 to generate 30 million reads/sample. Obtained reads were aligned to the latest mouse reference genome (mm10) using the STAR spliced read aligner. Pearson correlation and principal component analysis (PCA) was performed to determine the similarities among the samples and replicates. Differentially expressed genes were identified using DESeq and EdgeR package on R platform. […]
Quantitative (a) RT-PCR analysis: RNA was isolated with RNeasy Mini Kit (Qiagen, cat no. 74104), and converted to cDNA using Superscript IV First Strand Synthesis kit (Thermo Fisher Scientific). qRT-PCR was performed using SYBR Green PCR Master Mix (Applied Biosystems) on Roche 480 Lightcycler (Roche). The relative fold expression was calculated using 2-AACt method of comparing the expression of the target gene with that of the housekeeping gene glyceraldehyde 3-phosphate dehydrogenase (Gapdh). […]

CC1=C(/C=C/C(C)=C/C=C/C(C)=C/C(=O)O)C(C)(C)CCC1 [RA, retinoic acid]
BMP signaling (pSmad1/5/8 staining) (mESCs-derived NMPs; 100 nM RA, 10 ng/ml BMP4, day 5): did not activate BMP signaling | Pax2+ dI4/dI6 fate by day 9 (mESCs-derived NMPs; 6 hr pulse of RA at day 3): sufficient to direct NMPs towards a Pax2+dI4/dI6 fate | Pax3 and T (brachyury) expression after RA treatment (mESCs-derived NMPs; RA starting at day 3): Pax3 expression increases with RA exposure, while T expression rapidly decreases | neural identity of cultures (Pax3, Pax6, Sox2, Tuj1) (mESCs-derived NMPs; protocol 1: 100 nM RA alone 48 hours from day 3, day 9): dorsalized neural cultures | Meis1, Meis2, Meis3 expression [1]: Meis1 and Meis2, but not Meis3, are upregulated by RA
